Test system: A549
Assay: Cytotoxicity against human A549 cells by SRB protein staining method
Format: functional, cell-based

In the case of `COc1cccc2c1C(=O)c1c(O)c3c(c(O)c1C2=O)C[C@@](O)(C(=O)CO)C[C@@H]3O[C@H]1C[C@H](N)[C@H](O)[C@H](C)O1` [DOXORUBICIN], the IC50 is reported as 1200 nM.
